Measurements taken from article PMC12538886.
Results are given in words; binding and its absence hold for the method and conditions named. In cells and extracts the contact can be indirect. Where a sequence is shown, tags or fusion partners need not be part of it.

The chains behind the UniProt entries cited, without tags or fusion partners.
UniProt O60934: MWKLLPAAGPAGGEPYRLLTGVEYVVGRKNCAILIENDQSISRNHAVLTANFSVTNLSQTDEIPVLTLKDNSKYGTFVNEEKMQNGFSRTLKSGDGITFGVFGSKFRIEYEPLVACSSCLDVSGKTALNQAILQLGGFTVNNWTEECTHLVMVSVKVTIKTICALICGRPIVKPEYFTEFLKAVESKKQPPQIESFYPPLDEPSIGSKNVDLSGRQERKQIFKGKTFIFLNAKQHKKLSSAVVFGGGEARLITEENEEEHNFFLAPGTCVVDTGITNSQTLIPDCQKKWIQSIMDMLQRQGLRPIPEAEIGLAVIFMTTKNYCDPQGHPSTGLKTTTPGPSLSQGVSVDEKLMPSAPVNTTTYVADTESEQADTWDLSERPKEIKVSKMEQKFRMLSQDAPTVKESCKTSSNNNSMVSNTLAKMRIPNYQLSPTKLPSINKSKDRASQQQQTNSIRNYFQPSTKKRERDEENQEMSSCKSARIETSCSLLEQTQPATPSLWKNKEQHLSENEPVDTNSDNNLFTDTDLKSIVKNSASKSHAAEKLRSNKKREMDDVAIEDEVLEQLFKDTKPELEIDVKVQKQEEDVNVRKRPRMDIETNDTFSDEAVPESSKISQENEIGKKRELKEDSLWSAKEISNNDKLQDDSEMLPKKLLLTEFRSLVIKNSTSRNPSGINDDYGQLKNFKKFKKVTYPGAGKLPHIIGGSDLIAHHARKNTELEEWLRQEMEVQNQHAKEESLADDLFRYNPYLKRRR
UniProt Q92878: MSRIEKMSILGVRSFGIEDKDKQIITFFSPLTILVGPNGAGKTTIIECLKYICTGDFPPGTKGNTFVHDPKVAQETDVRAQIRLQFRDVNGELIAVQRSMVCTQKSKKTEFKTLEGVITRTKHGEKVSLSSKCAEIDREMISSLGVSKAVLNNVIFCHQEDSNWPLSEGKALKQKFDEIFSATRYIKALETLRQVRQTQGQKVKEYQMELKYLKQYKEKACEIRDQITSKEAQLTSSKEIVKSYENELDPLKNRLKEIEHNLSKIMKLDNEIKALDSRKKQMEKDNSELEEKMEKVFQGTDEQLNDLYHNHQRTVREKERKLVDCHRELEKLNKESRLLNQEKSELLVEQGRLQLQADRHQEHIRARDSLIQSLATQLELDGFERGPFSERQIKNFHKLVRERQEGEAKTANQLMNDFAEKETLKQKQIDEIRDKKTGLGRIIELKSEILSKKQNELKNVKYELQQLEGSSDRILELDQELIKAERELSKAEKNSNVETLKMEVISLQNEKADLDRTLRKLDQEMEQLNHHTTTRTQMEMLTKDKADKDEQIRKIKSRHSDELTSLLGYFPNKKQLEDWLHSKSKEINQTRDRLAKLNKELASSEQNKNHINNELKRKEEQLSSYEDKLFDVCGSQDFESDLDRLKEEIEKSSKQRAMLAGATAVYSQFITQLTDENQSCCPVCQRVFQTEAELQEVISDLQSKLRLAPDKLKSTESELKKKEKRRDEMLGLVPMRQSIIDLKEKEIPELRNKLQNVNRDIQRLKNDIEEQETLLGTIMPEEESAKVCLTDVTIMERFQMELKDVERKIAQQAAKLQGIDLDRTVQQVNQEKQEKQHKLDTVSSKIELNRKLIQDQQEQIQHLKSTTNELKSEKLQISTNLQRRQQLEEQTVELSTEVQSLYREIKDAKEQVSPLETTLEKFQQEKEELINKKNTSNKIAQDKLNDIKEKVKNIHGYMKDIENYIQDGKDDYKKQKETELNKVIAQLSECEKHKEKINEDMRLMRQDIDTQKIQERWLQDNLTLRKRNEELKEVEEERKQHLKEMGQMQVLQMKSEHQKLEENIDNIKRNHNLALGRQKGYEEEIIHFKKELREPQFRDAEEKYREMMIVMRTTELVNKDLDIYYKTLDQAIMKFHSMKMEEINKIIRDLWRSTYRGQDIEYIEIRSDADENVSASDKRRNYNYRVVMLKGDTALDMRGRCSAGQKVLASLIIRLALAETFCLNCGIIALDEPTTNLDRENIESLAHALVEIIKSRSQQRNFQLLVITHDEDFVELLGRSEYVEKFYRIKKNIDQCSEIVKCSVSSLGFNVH

Biological target: T1, Flag-ACOX2 (acyl-CoA oxidase 2) (UniProt Q99424)
T1 sequence: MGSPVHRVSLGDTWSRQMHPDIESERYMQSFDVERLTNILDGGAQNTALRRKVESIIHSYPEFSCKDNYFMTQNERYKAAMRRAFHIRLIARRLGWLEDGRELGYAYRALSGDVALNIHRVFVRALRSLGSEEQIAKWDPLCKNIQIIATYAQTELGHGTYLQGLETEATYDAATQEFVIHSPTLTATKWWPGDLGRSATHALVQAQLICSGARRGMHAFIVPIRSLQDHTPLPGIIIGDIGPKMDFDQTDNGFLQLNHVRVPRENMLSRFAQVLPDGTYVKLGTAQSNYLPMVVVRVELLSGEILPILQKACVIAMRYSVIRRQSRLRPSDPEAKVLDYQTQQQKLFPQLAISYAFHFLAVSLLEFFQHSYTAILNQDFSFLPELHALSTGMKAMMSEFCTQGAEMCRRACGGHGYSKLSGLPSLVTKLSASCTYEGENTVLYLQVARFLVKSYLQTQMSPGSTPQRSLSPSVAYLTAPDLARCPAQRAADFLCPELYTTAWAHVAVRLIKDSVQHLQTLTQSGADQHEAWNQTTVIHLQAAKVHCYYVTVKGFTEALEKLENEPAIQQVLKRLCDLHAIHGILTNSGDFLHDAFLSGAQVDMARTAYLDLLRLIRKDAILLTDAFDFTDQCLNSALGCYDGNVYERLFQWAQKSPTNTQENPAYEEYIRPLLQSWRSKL
Test: co-IP; Flag-ACOX2 with MRE11, RAD50 or NBS1, with or without ACOX2 overexpression (Fig. S3A); cells not given

binding | Substance
no binding | NBS1 (from UniProt O60934 1-754)
no binding | RAD50 (from UniProt Q92878 1-1312)
